According to the supplement of paper PMC8728848:
The list shows a part of the results.

Legend:
Assay in all cases: glycan array binding signal (z-score within array); higher = stronger binding
Details in all cases: glycan notation: IUPAC condensed, linker removed
[1] = biological target: Fuc(a1-2)[GalNAc(a1-3)]Gal(b1-3)GlcNAc(b1-6)GalNAc
Summary of the method: (§1)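 Glycan array data were curated from 3228 arrays in the Consortium for Functional Glycomics database and kept only where the protein sequence was available. Glycan names were converted to IUPAC-condensed notation, and columns mapping to the same glycan were averaged. The binding signal is a within-array Z-score, averaged across arrays of the same protein sequence at different concentrations or buffers and across linkers. Negative Z-scores can be read as non-binding.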

[2] = biological target: Fuc(a1-2)[GalNAc(a1-3)]Gal(b1-4)Glc
Summary of the method: as §1

[3] = biological target: Fuc(a1-2)[GalNAc(a1-3)]Gal(b1-4)GlcNAc
Summary of the method: as §1

[4] = biological target: Fuc(a1-2)[GalNAc(a1-3)]Gal(b1-4)GlcNAc(b1-2)Man
Summary of the method: as §1

[5] = biological target: Fuc(a1-2)[GalNAc(a1-3)]Gal(b1-4)GlcNAc(b1-2)Man(a1-3)[Fuc(a1-2)[GalNAc(a1-3)]Gal(b1-4)GlcNAc(b1-2)Man(a1-6)]Man(b1-4)GlcNAc(b1-4)GlcNAc
Summary of the method: as §1

[6] = biological target: Fuc(a1-2)[GalNAc(a1-3)]Gal(b1-4)GlcNAc(b1-2)Man(a1-3)[Fuc(a1-2)[GalNAc(a1-3)]Gal(b1-4)GlcNAc(b1-2)Man(a1-6)]Man(b1-4)GlcNAc(b1-4)[Fuc(a1-6)]GlcNAc
Summary of the method: as §1

[7] = biological target: Fuc(a1-2)[GalNAc(a1-3)]Gal(b1-4)GlcNAc(b1-3)Gal(b1-4)GlcNAc
Summary of the method: as §1

[8] = biological target: Fuc(a1-2)[GalNAc(a1-3)]Gal(b1-4)GlcNAc(b1-3)Gal(b1-4)GlcNAc(b1-3)Gal(b1-4)GlcNAc
Summary of the method: as §1

[9] = biological target: Fuc(a1-2)[GalNAc(a1-3)]Gal(b1-4)GlcNAc(b1-3)GalNAc
Summary of the method: as §1

[10] = biological target: Fuc(a1-2)[GalNAc(a1-3)]Gal(b1-4)GlcNAc(b1-3)[Fuc(a1-2)[GalNAc(a1-3)]Gal(b1-4)GlcNAc(b1-6)]GalNAc
Summary of the method: as §1

[11] = biological target: Fuc(a1-2)[GalNAc(a1-3)]Gal(b1-4)GlcNAc(b1-6)GalNAc
Summary of the method: as §1

[12] = biological target: Fuc(a1-2)[GalNAc(a1-3)]Gal(b1-4)[Fuc(a1-3)]GlcNAc
Summary of the method: as §1

[13] = biological target: Fuc(a1-2)[GalNAc(a1-3)]Gal(b1-4)[Fuc(a1-3)]GlcNAc(b1-3)GalNAc
Summary of the method: as §1

[14] = biological target: Fuc(a1-2)[GalNAc(a1-4)]Gal(b1-4)GlcNAc
Summary of the method: as §1

[15] = biological target: Fuc(a1-2)[GalNAc(b1-3)]Gal
Summary of the method: as §1

Fuc(a1-3)GlcNAc = biological target: Fuc(a1-3)GlcNAc
Summary of the method: as §1

[16] = biological target: Fuc(a1-3)[Gal(b1-4)]Glc6S
Summary of the method: as §1

[17] = biological target: Fuc(a1-3)[Gal(b1-4)]GlcNAc
Summary of the method: as §1

[18] = biological target: Fuc(a1-3)[Gal(b1-4)]GlcNAc(b1-2)Man
Summary of the method: as §1

[19] = biological target: Fuc(a1-3)[Gal(b1-4)]GlcNAc(b1-2)Man(a1-3)[Fuc(a1-3)[Gal(b1-4)]GlcNAc(b1-2)Man(a1-6)]Man(b1-4)GlcNAc(b1-4)GlcNAc
Summary of the method: as §1

[20] = biological target: Fuc(a1-3)[Gal(b1-4)]GlcNAc(b1-2)Man(a1-3)[Fuc(a1-3)[Gal(b1-4)]GlcNAc(b1-2)Man(a1-6)]Man(b1-4)GlcNAc(b1-4)[Fuc(a1-6)]GlcNAc
Summary of the method: as §1

[21] = biological target: Fuc(a1-3)[Gal(b1-4)]GlcNAc(b1-3)Gal(b1-3)[Fuc(a1-4)]GlcNAc
Summary of the method: as §1

[22] = biological target: Fuc(a1-3)[Gal(b1-4)]GlcNAc(b1-3)Gal(b1-4)[Fuc(a1-3)]GlcNAc
Summary of the method: as §1

[23] = biological target: Fuc(a1-3)[Gal(b1-4)]GlcNAc(b1-3)Gal(b1-4)[Fuc(a1-3)]GlcNAc(b1-3)Gal(b1-4)[Fuc(a1-3)]GlcNAc
Summary of the method: as §1

[24] = biological target: Fuc(a1-3)[Gal(b1-4)]GlcNAc(b1-3)GalNAc
Summary of the method: as §1

[25] = biological target: Fuc(a1-3)[Gal(b1-4)]GlcNAc(b1-6)GalNAc
Summary of the method: as §1

[26] = biological target: Fuc(a1-3)[Gal(b1-4)]GlcNAc(b1-6)[Gal(b1-3)GlcNAc(b1-3)]Gal(b1-4)Glc
Summary of the method: as §1

[27] = biological target: Fuc(a1-3)[Gal(b1-4)]GlcNAc6S
Summary of the method: as §1

[28] = biological target: Fuc(a1-3)[Gal3S(b1-4)]Glc
Summary of the method: as §1

[29] = biological target: Fuc(a1-3)[Gal3S(b1-4)]GlcNAc
Summary of the method: as §1

[30] = biological target: Fuc(a1-3)[Gal3S(b1-4)]GlcNAc6S
Summary of the method: as §1

[31] = biological target: Fuc(a1-3)[GalNAc(b1-4)]GlcNAc
Summary of the method: as §1

[32] = biological target: Fuc(a1-3)[GalNAc(b1-4)]GlcNAc6S
Summary of the method: as §1

Fuc(a1-4)GlcNAc = biological target: Fuc(a1-4)GlcNAc
Summary of the method: as §1

Fuc(b1-3)GlcNAc = biological target: Fuc(b1-3)GlcNAc
Summary of the method: as §1

Gal(a1-2)Gal = biological target: Gal(a1-2)Gal
Summary of the method: as §1

Gal(a1-3)Gal = biological target: Gal(a1-3)Gal
Summary of the method: as §1

Gal(a1-3)Gal(b1-3)GlcNAc = biological target: Gal(a1-3)Gal(b1-3)GlcNAc
Summary of the method: as §1

[33] = biological target: Gal(a1-3)Gal(b1-3)GlcNAc(b1-2)Man
Summary of the method: as §1

[34] = biological target: Gal(a1-3)Gal(b1-3)GlcNAc(b1-2)Man(a1-3)[Gal(a1-3)Gal(b1-3)GlcNAc(b1-2)Man(a1-6)]Man(b1-4)GlcNAc(b1-4)GlcNAc
Summary of the method: as §1

[35] = biological target: Gal(a1-3)Gal(b1-3)GlcNAc(b1-3)GalNAc
Summary of the method: as §1

[36] = biological target: Gal(a1-3)Gal(b1-3)GlcNAc(b1-6)GalNAc
Summary of the method: as §1

[37] = biological target: Gal(a1-3)Gal(b1-3)[Fuc(a1-4)]GlcNAc(b1-2)Man(a1-3)[Gal(a1-3)Gal(b1-3)[Fuc(a1-4)]GlcNAc(b1-2)Man(a1-6)]Man(b1-4)GlcNAc(b1-4)GlcNAc
Summary of the method: as §1

Gal(a1-3)Gal(b1-4)Glc = biological target: Gal(a1-3)Gal(b1-4)Glc
Summary of the method: as §1

Gal(a1-3)Gal(b1-4)GlcNAc = biological target: Gal(a1-3)Gal(b1-4)GlcNAc
Summary of the method: as §1

B1: GS7807G-bfa-506-18-506 (Bacteroides fragilis) (protein)
chain: ASCDKFDEINTDPDATTKVTSSLLATGLLLDITSSSASKSFIYDELLAKQMAWGESMEDYQYNVFGRSGFGGYTTLINAQKMVESVSDDNVNAYDGLAHFIKAYKIFYMSMEMGDLPYEEALQGELGLVRPKYNTQKEVMNFILSDLETAYELFSTAKDFDGDPILGGSISKWKKATTAFQLKVLMHLSKKESDADLKVKERFARIVASGSLMESNEDNLQMKYADKANTVYPFHNTNTKHAGYAMLSTMLIDKFKATGDIRMFYYAKPAKAKLNEGVTADSWDAYIGTDPSLPFEQIEKAYATEQYSGFNARYTDYPSGEPVVRLGYAEQNFILAEAAVRGWISGDASAYYKKAIRAHMEFIASNTPDEEVYHHGHPITEEAIAAFLETPAIQLSGEKEEDIEKILTQRYLASFMQHPYDVYYDYRRTGYPVLPINPATNRNTMNDRLPMRWMYPKSESDYNLEHQNEALERQFGGVDDVNKLMWILQ
glycan array binding signal (z-score) [1]: -0.032 | glycan array binding signal (z-score) [2]: -0.693 | glycan array binding signal (z-score) [3]: -0.72 | glycan array binding signal (z-score) [4]: -0.111 | glycan array binding signal (z-score) [5]: 1.68 | glycan array binding signal (z-score) [6]: -0.285 | glycan array binding signal (z-score) [7]: -0.624 | glycan array binding signal (z-score) [8]: -0.91 | glycan array binding signal (z-score) [9]: -0.487 | glycan array binding signal (z-score) [10]: -0.824 | glycan array binding signal (z-score) [11]: 0.383 | glycan array binding signal (z-score) [12]: 1.94 | glycan array binding signal (z-score) [13]: 1.6 | glycan array binding signal (z-score) [14]: 0.464 | glycan array binding signal (z-score) [15]: 0.922 | glycan array binding signal (z-score) (Fuc(a1-3)GlcNAc): -0.665 | glycan array binding signal (z-score) [16]: -0.004 | glycan array binding signal (z-score) [17]: -0.4 | glycan array binding signal (z-score) [18]: 0.315 | glycan array binding signal (z-score) [19]: 0.726 | glycan array binding signal (z-score) [20]: 1.51 | glycan array binding signal (z-score) [21]: -0.716 | glycan array binding signal (z-score) [22]: -0.387 | glycan array binding signal (z-score) [23]: -0.566 | glycan array binding signal (z-score) [24]: -0.099 | glycan array binding signal (z-score) [25]: 0.935 | glycan array binding signal (z-score) [26]: 0.414 | glycan array binding signal (z-score) [27]: -0.287 | glycan array binding signal (z-score) [28]: -0.945 | glycan array binding signal (z-score) [29]: 0.195 | glycan array binding signal (z-score) [30]: 0.069 | glycan array binding signal (z-score) [31]: 0.279 | glycan array binding signal (z-score) [32]: 0.588 | glycan array binding signal (z-score) (Fuc(a1-4)GlcNAc): -0.751 | glycan array binding signal (z-score) (Fuc(b1-3)GlcNAc): -0.561 | glycan array binding signal (z-score) (Gal(a1-2)Gal): -0.863 | glycan array binding signal (z-score) (Gal(a1-3)Gal): -0.571 | glycan array binding signal (z-score) (Gal(a1-3)Gal(b1-3)GlcNAc): -0.248 | glycan array binding signal (z-score) [33]: 0.779 | glycan array binding signal (z-score) [34]: 4.66 | glycan array binding signal (z-score) [35]: 0.034 | glycan array binding signal (z-score) [36]: 1.31 | glycan array binding signal (z-score) [37]: 1.08 | glycan array binding signal (z-score) (Gal(a1-3)Gal(b1-4)Glc): 0.171 | glycan array binding signal (z-score) (Gal(a1-3)Gal(b1-4)GlcNAc): 0.15
